Source: PubChem BioAssay AID1159584 (Peter MacCallum Cancer Centre, 2016)

Aim: 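Knock-downs that harm CDH1-null cells more than parental MCF10A cells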 (primary screen)
Cell system: human MCF10A breast epithelial cells, parental and CDH1-null
Reagent: siRNA against human genes
Measurement: 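Cell viability by CellTiter-Glo ATP luminescence, each line scaled to the mean of mock wells across plates, then CDH1-null over parental ratio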
Reading the numbers: CDH1-null / parental viability ratio: higher = CDH1-null cells survive relatively better than parental; CDH1-null viability vs mock: higher = more viable CDH1-null cells; parental viability vs mock: higher = more viable parental cells
In all, the deposit lists about 18,000 reagents; shown is a part drawn at random. Not stated in the record: the amount of reagent, the time to read-out.

target gene | CDH1-null / parental viability ratio | CDH1-null viability vs mock (fraction of mock) | parental viability vs mock (fraction of mock)
BRD4 (bromodomain containing 4) | 0.79 | 0.48 | 0.61
PWP1 (PWP1 homolog, endonuclein) | 1.01 | 0.86 | 0.85
RGCC (regulator of cell cycle) | 0.88 | 0.5 | 0.57
MAST2 (microtubule associated serine/threonine kinase 2) | 0.58 | 0.38 | 0.66
HPSE2 (heparanase 2 (inactive)) | 0.8 | 0.64 | 0.8
MYO7B (myosin VIIB) | 1.02 | 0.88 | 0.86
GYPE (glycophorin E (MNS blood group)) | 1.02 | 0.92 | 0.9
CEP85 (centrosomal protein 85) | 0.95 | 0.8 | 0.84
NDN (necdin, MAGE family member) | 1.5 | 0.66 | 0.44
SHANK2 (SH3 and multiple ankyrin repeat domains 2) | 2.31 | 0.74 | 0.32
HACD1 (3-hydroxyacyl-CoA dehydratase 1) | 1.18 | 1.04 | 0.88
CAMP (cathelicidin antimicrobial peptide) | 1.22 | 0.88 | 0.72
MEIOC (meiosis specific with coiled-coil domain) | 0.97 | 1.01 | 1.04
DONSON (DNA replication fork stabilization factor DONSON) | 1.21 | 0.34 | 0.28
LALBA (lactalbumin alpha) | 1.43 | 1.06 | 0.74
RTN4 (reticulon 4) | 1 | 0.8 | 0.8
SSX4B (SSX family member 4B) | 1.04 | 0.85 | 0.82
AMY1A (amylase alpha 1A) | 0.82 | 0.79 | 0.96
HAPLN3 (hyaluronan and proteoglycan link protein 3) | 1.06 | 0.53 | 0.5
CBL (Cbl proto-oncogene) | 1.02 | 0.96 | 0.94
KCTD21 (potassium channel tetramerization domain containing 21) | 0.96 | 0.9 | 0.94
C2CD4A (C2 calcium dependent domain containing 4A) | 0.84 | 0.59 | 0.7
SNX7 (sorting nexin 7) | 1.2 | 0.98 | 0.82
TMEM215 (transmembrane protein 215) | 0.76 | 0.62 | 0.82
RNF169 (ring finger protein 169) | 0.79 | 0.67 | 0.85
THOP1 (thimet oligopeptidase 1) | 0.93 | 0.54 | 0.58
ACTC1 (actin alpha cardiac muscle 1) | 0.71 | 0.68 | 0.96
SIVA1 (SIVA1 apoptosis inducing factor) | 1.33 | 1.09 | 0.82
TEKT1 (tektin 1) | 1.21 | 1.04 | 0.86
DENND2A (DENN domain containing 2A) | 1 | 0.9 | 0.9
DYNC2H1 (dynein cytoplasmic 2 heavy chain 1) | 0.85 | 0.46 | 0.54
FBXL14 (F-box and leucine rich repeat protein 14) | 0.86 | 0.77 | 0.9
ASB14 (ankyrin repeat and SOCS box containing 14) | 0.88 | 0.6 | 0.68
SLC36A1 | 1.5 | 0.57 | 0.38
AURKA (aurora kinase A) | 0.88 | 0.53 | 0.6
CAMK2B (calcium/calmodulin dependent protein kinase II beta) | 0.78 | 0.52 | 0.67
ABCD2 (ATP binding cassette subfamily D member 2) | 1.07 | 1.02 | 0.95
MS4A14 (membrane spanning 4-domains A14) | 1.62 | 0.6 | 0.37
CCT8L2 (chaperonin containing TCP1 subunit 8 like 2) | 1.23 | 1.06 | 0.86
VMP1 (vacuole membrane protein 1) | 1 | 0.66 | 0.66
CEND1 (cell cycle exit and neuronal differentiation 1) | 1.1 | 0.9 | 0.82
SHTN1 (shootin 1) | 0.75 | 0.66 | 0.88
COA8 (cytochrome c oxidase assembly factor 8) | 1.17 | 0.94 | 0.8
PTPN6 (protein tyrosine phosphatase non-receptor type 6) | 1.51 | 0.8 | 0.53
PHLPP2 (PH domain and leucine rich repeat protein phosphatase 2) | 0.79 | 0.7 | 0.89
JRKL (JRK like) | 1.05 | 0.98 | 0.93

Targets listed so far whose gene name starts with R or r (3):
target gene | CDH1-null / parental viability ratio | CDH1-null viability vs mock (fraction of mock) | parental viability vs mock (fraction of mock)
RGCC (regulator of cell cycle) | 0.88 | 0.5 | 0.57
RTN4 (reticulon 4) | 1 | 0.8 | 0.8
RNF169 (ring finger protein 169) | 0.79 | 0.67 | 0.85
